Data from the supplement of paper PMC12823440, “Inhibitors supercharge kinase turnover through native proteolytic circuits” (Nature, 2025).
Where a name gives a salt, the structure may show the parent alone. Some of the results follow. Hit calls seldom repeat between salt and free forms of one compound.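 Kinases, fused to nanoluciferase, were expressed in K562 cells; luminescence was measured every 4 h from 2 to 18 h as percent of control (DMSO = 100%, positive control = 0%). A time point is decreased if signal falls significantly (2 sigma). Hits were called by the authors by a rule that is not shown; the count of time points alone does not decide it.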

Amino acid sequences for entries named in this document (tags omitted). A change or cut given only in a name is not applied to a line headed by its entry.
UniProt P51813: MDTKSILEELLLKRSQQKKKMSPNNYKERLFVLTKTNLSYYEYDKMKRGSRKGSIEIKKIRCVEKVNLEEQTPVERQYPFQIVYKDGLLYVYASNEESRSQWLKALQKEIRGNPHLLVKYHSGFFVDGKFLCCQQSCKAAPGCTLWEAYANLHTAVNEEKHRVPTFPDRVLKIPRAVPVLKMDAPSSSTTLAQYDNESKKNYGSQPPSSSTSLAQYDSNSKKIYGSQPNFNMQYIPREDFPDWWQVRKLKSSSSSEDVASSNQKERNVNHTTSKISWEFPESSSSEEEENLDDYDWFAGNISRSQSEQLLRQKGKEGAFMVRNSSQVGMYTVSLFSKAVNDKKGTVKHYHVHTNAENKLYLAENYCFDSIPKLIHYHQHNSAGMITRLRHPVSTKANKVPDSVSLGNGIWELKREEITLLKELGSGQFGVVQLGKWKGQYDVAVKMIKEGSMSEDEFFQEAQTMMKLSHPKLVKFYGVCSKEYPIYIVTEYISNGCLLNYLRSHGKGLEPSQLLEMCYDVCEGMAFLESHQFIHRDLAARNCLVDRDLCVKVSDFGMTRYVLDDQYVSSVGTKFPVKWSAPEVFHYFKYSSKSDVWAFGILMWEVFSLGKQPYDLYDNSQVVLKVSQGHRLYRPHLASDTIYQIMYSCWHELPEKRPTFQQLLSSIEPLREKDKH
UniProt P15056, whole entry, looked up: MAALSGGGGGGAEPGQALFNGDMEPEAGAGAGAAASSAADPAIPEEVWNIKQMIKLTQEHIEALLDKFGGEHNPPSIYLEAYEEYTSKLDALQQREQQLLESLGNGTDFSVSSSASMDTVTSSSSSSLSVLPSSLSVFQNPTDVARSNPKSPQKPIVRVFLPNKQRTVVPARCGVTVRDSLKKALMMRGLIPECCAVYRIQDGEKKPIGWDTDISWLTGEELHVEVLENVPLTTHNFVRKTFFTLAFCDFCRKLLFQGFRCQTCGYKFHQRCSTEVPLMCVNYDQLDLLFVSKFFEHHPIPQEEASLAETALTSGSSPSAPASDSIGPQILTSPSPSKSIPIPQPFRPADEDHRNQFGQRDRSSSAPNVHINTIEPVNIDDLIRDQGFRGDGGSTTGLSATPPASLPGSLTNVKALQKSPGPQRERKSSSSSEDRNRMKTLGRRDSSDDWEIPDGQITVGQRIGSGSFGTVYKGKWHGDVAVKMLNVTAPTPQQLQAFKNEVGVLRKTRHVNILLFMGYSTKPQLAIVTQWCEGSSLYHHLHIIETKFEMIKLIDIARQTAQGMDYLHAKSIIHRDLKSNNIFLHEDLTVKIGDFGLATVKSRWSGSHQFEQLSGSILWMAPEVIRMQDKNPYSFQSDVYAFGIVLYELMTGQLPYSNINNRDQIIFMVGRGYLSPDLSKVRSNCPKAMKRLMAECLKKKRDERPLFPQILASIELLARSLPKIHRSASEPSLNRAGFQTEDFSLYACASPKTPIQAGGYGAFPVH

These compounds were tested against BMX (UniProt P51813) (assay: kinase-Nluc reporter destabilization hit call (1 = scored as downregulated) (binary); higher = compound decreases kinase abundance). Conditions: K562; 2-18 h.
For `CC(C)=CC[C@H](O)C1=CC(=O)c2c(O)ccc(O)c2C1=O` [(-)-Alkannin] (2.5 µM), the “kinase-Nluc reporter destabilization hit call” value was inactive: 0. With `CC(C)c1cnc(-c2cc(Cl)ccc2F)cc1Nc1ccncc1C(=O)NC(CO)CO` (2.5 µM) the “kinase-Nluc reporter destabilization hit call” value was inactive: 0. With `Cn1cnc(-c2cc3nccc(Oc4ccc(NC(=S)NC(=O)Cc5ccccc5)cc4F)c3s2)c1` [MGCD-265 analog] (10 µM) the “kinase-Nluc reporter destabilization hit call” value was inactive: 0. In the case of `COC1(c2sc3c(N4CCOCC4)nc(-c4cnc(N)nc4)nc3c2C)COC1` (2.5 µM), the “kinase-Nluc reporter destabilization hit call” value is reported as inactive: 0. In the case of `Cc1cc(NC(=O)c2cccc(NC(=O)/C=C/CN(C)C)c2)ccc1Nc1nccc(-c2cccnc2)n1` (10 µM), the “kinase-Nluc reporter destabilization hit call” value is reported as inactive: 0. `O=C(/C=C/c1ccc(O)c(O)c1)OC1CC(OC(=O)/C=C/c2ccc(O)c(O)c2)(C(=O)O)CC(O)C1O` (centres undefined) [1,3-Dicaffeoylquinic acid] (10 µM) was tested, and the “kinase-Nluc reporter destabilization hit call” value was inactive: 0. For `COc1ccc2c(c1O)OC(C)(C)c1c-2ccc2c1C(=O)N(c1ccc(C(=O)c3ccccc3)cc1)C2=O` [Ampkinone] (10 µM), the “kinase-Nluc reporter destabilization hit call” value was inactive: 0. For `CNC(=O)Nc1ccc(-c2cc(-c3ccnc(Nc4ccc(C)c(S(=O)(=O)N(C)C)c4)n3)ccn2)cc1` [hSMG-1 inhibitor 11e] (2.5 µM), the “kinase-Nluc reporter destabilization hit call” value was inactive: 0.

The compounds below were run against BRAF (UniProt P15056) in the same assay as above. Conditions: K562; 2-18 h.
In the case of `O=c1cc(O)cc(/C=C/c2ccc(O)c(O)c2)o1` [Hispidin] (10 µM), the “kinase-Nluc reporter destabilization hit call” value is reported as inactive: 0. In the case of `CC1CN(C(=O)Nc2ccc(Cl)c(Cl)c2)C(=Nc2ccc(F)cc2)S1` (centres undefined) (10 µM), the “kinase-Nluc reporter destabilization hit call” value is reported as inactive: 0. In the case of `COc1cc2c[n+](C)c3c4cc5c(cc4ccc3c2cc1OC)OCO5` [Nitidine (chloride)] (2 µM), the “kinase-Nluc reporter destabilization hit call” value is reported as inactive: 0. With `Cc1c(CN2CCN(S(C)(=O)=O)CC2)sc2c(N3CCOCC3)nc(-c3cnc(N)nc3)nc12` (2.5 µM) the “kinase-Nluc reporter destabilization hit call” value was inactive: 0. For `Cc1cc([C@H](C)Nc2ccccc2)c2oc(N3CCOCC3)cc(=O)c2c1` (10 µM), the “kinase-Nluc reporter destabilization hit call” value was inactive: 0. `O=C(CNC(=O)c1ccc(-c2ccccc2)cc1)NC1CCCc2ccccc21` (centres undefined) [TAO Kinase inhibitor 1] (10 µM) was tested, and the “kinase-Nluc reporter destabilization hit call” value was inactive: 0. In the case of `Cn1cc(-c2ccc(CNc3cc(-c4cnc5cc(OCCCN6CCCC6)ccn45)ncn3)cc2)cn1` (10 µM), the “kinase-Nluc reporter destabilization hit call” value is reported as inactive: 0. `Cc1ccc(S(=O)(=O)Nc2ccccc2C=Nc2ccccc2NS(=O)(=O)c2ccc(C)cc2)cc1` (10 µM) was tested, and the “kinase-Nluc reporter destabilization hit call” value was inactive: 0. `O=C(/C=C/c1ccc(O)c(O)c1)c1ccc(O[C@@H]2O[C@H](CO)[C@@H](O)[C@H](O)[C@H]2O)c(O)c1O` [Marein] (10 µM) was tested, and the “kinase-Nluc reporter destabilization hit call” value was inactive: 0. With `O=C(NCCCNc1nc(Nc2cccc(NC(=O)N3CCCC3)c2)ncc1I)c1cccs1` (2.5 µM) the “kinase-Nluc reporter destabilization hit call” value was inactive: 0. `CN(CCNc1ccc2ncc(-c3ccc(C(N)=O)cc3)n2n1)C(=O)OC(C)(C)C` (10 µM) was tested, and the “kinase-Nluc reporter destabilization hit call” value was inactive: 0. In the case of `C=C(C)C(=O)Nc1cccc(-c2ncnc3[nH]cc(C(=O)OCC)c23)c1` (10 µM), the “kinase-Nluc reporter destabilization hit call” value is reported as inactive: 0. With `COc1ccc(C(=C2C(=O)Nc3ccccc32)c2ccc(OC)cc2)cc1` (10 µM) the “kinase-Nluc reporter destabilization hit call” value was inactive: 0. For `CN1CCN(c2ccc(C(=O)Nc3cc(-c4cccc(NS(=O)(=O)c5ccccc5)c4)[nH]n3)cc2)CC1` [BPR1J-097 Hydrochloride] (2.5 µM), the “kinase-Nluc reporter destabilization hit call” value was inactive: 0. In the case of `C=CC(=O)Nc1cc2c(Nc3ccc(OCc4ccccn4)c(Cl)c3)ncnc2cc1OCCN1CCOCC1` (10 µM), the “kinase-Nluc reporter destabilization hit call” value is reported as inactive: 0. `Cc1c(NC(=O)OC[C@@H]2COCCN2)cn2ncnc(Nc3ccc4c(cnn4Cc4cccc(F)c4)c3)c12` (10 µM) was tested, and the “kinase-Nluc reporter destabilization hit call” value was inactive: 0. With `CNc1nc(Nc2cnn(C3CCN(C4COC4)CC3F)c2Cl)ncc1C(F)(F)F` (centres undefined) (10 µM) the “kinase-Nluc reporter destabilization hit call” value was inactive: 0. With `O=C(NCCO)c1ccc2c(c1)nc(Nc1cccc(Cl)c1)c1ccncc12` [CK2 inhibitor 2] (10 µM) the “kinase-Nluc reporter destabilization hit call” value was inactive: 0. For `N#CC(c1ccnc(NCCc2cccnc2)n1)c1nc2ccccc2s1` (centres undefined) (10 µM), the “kinase-Nluc reporter destabilization hit call” value was active: 1. For `CCN(CC)S(=O)(=O)c1ccc(OC)c(N2CCN(C(=O)c3ccc(F)cc3C(F)(F)F)CC2)c1` (10 µM), the “kinase-Nluc reporter destabilization hit call” value was inactive: 0. With `CO[C@H]1C[C@@H]2CC[C@@H](C)[C@@](O)(O2)C(=O)C(=O)N2CCCC[C@H]2C(=O)O[C@H]([C@H](C)C[C@@H]2CC[C@@H](O)[C@H](OC)C2)CC(=O)[C@H](C)/C=C(\C)[C@@H](O)[C@@H](OC)C(=O)[C@H](C)C[C@H](C)/C=C/C=C/C=C/1C` [Rapamycin] (10 µM) the “kinase-Nluc reporter destabilization hit call” value was inactive: 0.
